No constants are given. Whether binding was seen depends on the method and setting. Some results given as binding are weak or reduced against the parent protein; the word gives no strength.

Experiment [1] addresses human MR LBD (residues 727-984) containing a C808S mutation, 6xHis-GST fusion protein (human) (UniProt P08235). The experiment can be described thus: AlphaScreen, biotinylated peptide and 6xHis-GST MR LBD/corticosterone. (In general: Bead proximity is the source of the signal in Alpha formats.)
Experiment [2] shares this target. The experiment can be described thus: AlphaScreen competition, 500 nM unlabeled peptide against the SRC2-3 motif.
Experiment [3] has the same target. The experiment can be described thus: AlphaScreen peptide profiling (corticosterone- and aldosterone-bound MR LBD).
Experiment [4] has the same target. The experiment can be described thus: AlphaScreen peptide profiling (FIG. 1C).
For experiment [5], the target named is MR LBD (C808S) with E962R first charge clamp (AF-2 helix) mutation, 6xHis-GST fusion protein (human) (UniProt P08235). The experiment can be described thus: AlphaScreen, purified MR LBD (C808S) mutant, 100 nM corticosterone.
In experiment [6] the target is MR LBD (C808S) with E796R second charge clamp mutation, 6xHis-GST fusion protein (human) (UniProt P08235). The description is as above.
Experiment [7] addresses human MR LBD (residues 727-984) containing a C808S mutation, 6xHis-GST fusion protein (human) (UniProt P08235). The experiment can be described thus: AlphaScreen competition (FIGS. 1C and 3D).

In the case of PCQGSASHPTILYTLLSPGP (biotinylated (site not stated)) [biotinylated SHP-1 peptide], the binding result in experiment [1] was “binds”.
Consider AEEPSLLKKLLLAPA [unlabeled PGC1α-1 peptide], for which the binding result in experiment [2], in experiment [3] and in experiment [4] was “binds” throughout.
As for RRPCSELLKYLTTND [unlabeled PGC1α-2 peptide], the binding result in experiment [4] is given as “binds”.
Turning to VAEAPVPSILKKILLEEPNS (biotinylated (site not stated)) [biotinylated SHP-2 peptide], in experiment [1], the binding entry is on record as “binds”.
For the molecule WAEFSILRELLAQDV [unlabeled PGC1β-2 peptide], the binding entry in experiment [2], in experiment [3] and in experiment [4] was “binds” throughout.
For QKPTSGPQTPQAQQKSLLQQLLTE (biotinylated (site not stated)) [biotinylated SRC1-4 peptide], the binding result in experiment [1], in experiment [5] and in experiment [6] was “binds” throughout.
In the case of AQQKSLLQQLLTE [unlabeled SRC1-4 peptide …], the binding entry in experiment [2], in experiment [7], in experiment [3] and in experiment [4] was “binds” in each case.
In the case of VDELSLLQKLLLATS [unlabeled PGC1β-1 peptide], the binding result in experiment [4] was “binds”.
As to PRQGSILYSLLTSSK [unlabeled DAX1-3 peptide], the binding result in experiment [2] and in experiment [3] was “binds” in each case.
Regarding QEPVSPKKKENALLRYLLDKDDTKD (biotinylated (site not stated)) [biotinylated SRC2-3 (TIF2) peptide], the binding result in experiment [1] and in experiment [5] was “binds” in each case.
For the molecule SPSSHSSLTERHKILHRLLQEGSP (biotinylated (site not stated)) [biotinylated SRC1-2 peptide], the binding entry in experiment [1] is reported as “binds”.
Regarding AEEPSLLKKLLLAPA (biotinylated (site not stated)) [biotinylated PGC1α-1 peptide], the binding result in experiment [1] is recorded as “binds”.
Take SGNLVPDAASKHKQLSELLRGGSG (biotinylated (site not stated)) [biotinylated CBP-1 peptide]: the binding result in experiment [1] is given as “binds”.
Consider GHGEDFSKVSQNPILTSLLQITGN (biotinylated (site not stated)) [biotinylated TRAP peptide], for which the binding entry in experiment [1] is given as “binds”.

Values taken from patent US20070111265A1, “Ligands for mineralocorticoid receptor (MR) and methods for screening for or designing MR ligands” (Van Andel Research Institute, priority 2005, published 2007).
